Reference: PMC3103425
These are yes or no findings as the source states them, for the method shown. For some of these results: A result given as binding can be weak or reduced; the word gives no strength.

The chains behind the UniProt entries cited, without tags or fusion partners. Where a name states a change or a piece, a line headed by the entry shows the natural chain unless it says otherwise.
UniProt Q60EN8: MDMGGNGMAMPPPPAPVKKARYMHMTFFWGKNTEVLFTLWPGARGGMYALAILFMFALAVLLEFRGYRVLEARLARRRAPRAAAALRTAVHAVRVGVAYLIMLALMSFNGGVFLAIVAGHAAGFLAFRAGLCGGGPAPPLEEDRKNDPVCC
UniProt F5BCS3: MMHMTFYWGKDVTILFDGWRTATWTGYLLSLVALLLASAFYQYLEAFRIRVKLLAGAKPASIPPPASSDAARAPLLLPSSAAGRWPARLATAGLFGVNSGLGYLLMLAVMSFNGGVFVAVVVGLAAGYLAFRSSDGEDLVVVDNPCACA
UniProt Q94EE4: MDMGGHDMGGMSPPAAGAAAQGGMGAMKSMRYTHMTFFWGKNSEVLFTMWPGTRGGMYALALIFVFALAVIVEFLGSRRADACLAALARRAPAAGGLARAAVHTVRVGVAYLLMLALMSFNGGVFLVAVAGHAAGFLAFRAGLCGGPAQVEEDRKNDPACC

What was measured:
Experiment in all cases: two-hybrid; split-ubiquitin membrane yeast two-hybrid (MoBiTec kit); Cub and NubG fusion constructs co-transformed into yeast strain NMY51; read by growth on medium lacking His or Ade and by beta-galactosidase activity
[1] = target: rice COPT5 (rice (Oryza sativa ssp. japonica)) (UniProt Q60EN8)
[2] = target: rice COPT2 (rice (Oryza sativa ssp. japonica)) (UniProt Q5ZD08)
[3] = target: rice COPT7 (rice (Oryza sativa ssp. japonica)) (UniProt F5BCS3)
[4] = target: rice COPT3 (rice (Oryza sativa ssp. japonica)) (UniProt Q10KT6)
[5] = target: rice COPT4 (rice (Oryza sativa ssp. japonica)) (UniProt Q7XTF8)
Alg5 = Alg5 (UniProt P40350)

binding [1] | binding [2] | binding [3] | binding [4] | binding [5] | binding (Alg5) | Substance
binds | no binding | no binding | no binding | no binding | – | rice COPT1 (from UniProt Q94EE4)
no binding | – | no binding | no binding | no binding | binds | rice COPT2 (from UniProt Q5ZD08)
no binding | – | no binding | – | no binding | binds | rice COPT3 (from UniProt Q10KT6)
no binding | – | no binding | – | – | binds | rice COPT4 (from UniProt Q7XTF8)
– | – | no binding | – | – | – | rice COPT5 (from UniProt Q60EN8)
– | – | – | – | – | binds | rice COPT7 (from UniProt F5BCS3)
